The results in this text go back to PubChem BioAssay AID256 (DTP/NCI, 2004).

The list is a part of this screen's results and no random one: it gathers tests that were run many times, whatever their T/C, doses with no T/C, and many T/C values between a quarter and a half above the control. Further doses and runs are listed elsewhere. T/C gives the treated animals as a percentage of the vehicle group. Some entries give survivors of the animals treated and no T/C: the source holds a T/C of zero for them, seemingly a mark for toxic or unscored doses. Some survivor counts are full or nearly so, which does not show that the dose was tolerated: the source hardly ever lists a survival T/C far under the control, and the zero likely stands for such cases as well. Counts of survivors are from the toxicity check (mostly the fifth day) where no day follows; animals may have died later. Schedule codes are those of the source, read here as Q, the interval in days (D) or hours (H), X, the number of doses. Some doses were run more than once; the values are given in rising order. Some structures stand for samples that the source files as different forms (salt, stereo form or complex); doses refer to the form tested. For survival time, the PubChem record calls one and a half times the control and up active, and a quarter to a half above the control has no call in these data; cut-offs in other NCI protocols can differ.

This experiment has as its system CD2F1 mice, L1210 leukemia ip, survival T/C. The experiment is described as follows: NCI In Vivo Anticancer Drug Screen. Data for tumor model L1210 Leukemia (intraperitoneal) in CD2F1 (CDF1) mice. Conditions: higher T/C = longer survival. The method in brief:
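Mice carrying a transplanted tumor received test compound or vehicle alone. The value is the measurement in the treated group divided by that in the vehicle-treated control group.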

Where [1] appears, read: T/C endpoint: mean survival time, dose: 200.0 mg/kg/injection, schedule: Q04DX003 (ip), vehicle: saline.
Where [2] appears, read: T/C endpoint: mean survival time, dose: 400.0 mg/kg/injection, schedule: Q04DX003 (ip), vehicle: saline with Tween-80.
[3] abbreviates: T/C endpoint: mean survival time, dose: 200.0 mg/kg/injection, schedule: Q01DX009 (ip), vehicle: saline with Tween-80.
[4] abbreviates: T/C endpoint: mean survival time, dose: 400.0 mg/kg/injection, schedule: Q01DX001 (ip), vehicle: saline with Tween-80.
[5] abbreviates: T/C endpoint: mean survival time, dose: 200.0 mg/kg/injection, schedule: Q01DX001 (ip), vehicle: saline with Tween-80.
The mark [6] stands for this setting: T/C endpoint: mean survival time, dose: 100.0 mg/kg/injection, schedule: Q04DX003 (ip), vehicle: saline with Tween-80.
[7] abbreviates: T/C endpoint: mean survival time, dose: 200.0 mg/kg/injection, schedule: Q04DX003 (ip), vehicle: saline with Tween-80.
The mark [8] stands for this setting: T/C endpoint: mean survival time, dose: 400.0 mg/kg/injection, schedule: Q01DX009 (ip), vehicle: saline with Tween-80.

As for `COC(=O)C1(N)CCCC1`, the T/C is, setting by setting: (T/C endpoint: mean survival time, dose: 50.0 mg/kg/injection, schedule: Q01DX009 (ip), vehicle: saline) 125 % of control; (T/C endpoint: mean survival time, dose: 100.0 mg/kg/injection, schedule: Q01DX009 (ip), vehicle: saline) 131 % of control; under setting [1], 128 % of control; under setting [2], 138 % of control; (T/C endpoint: mean survival time, dose: 400.0 mg/kg/injection, schedule: Q04DX003 (ip), vehicle: saline) 136 % of control.
For `O=[N+]([O-])c1cc(S(=O)(=O)O)cc([N+](=O)[O-])c1Cl`, the survivor count reads like this: (T/C endpoint: mean survival time, dose: 200.0 mg/kg/injection, schedule: Q01DX009 (ip), vehicle: saline) 1 of 6; (T/C endpoint: mean survival time, dose: 400.0 mg/kg/injection, schedule: Q01DX009 (ip), vehicle: saline) 1 of 6.
In the case of `[Cl][Pt+2]([Cl])([Cl])[Cl].[NH-]C1CCCCC1.[NH-]C1CCCCC1`, the survivor count under setting [3] is reported as 0 of 6.
On to `CC1=NN(c2ccc([N+](=O)[O-])cc2)C(=O)C1[N+](=O)[O-]` (centres undefined) (tested in a mixture with another compound), for which the survivor count by setting is: (T/C endpoint: mean survival time, dose: 300.0 mg/kg/injection, schedule: Q01DX001 (ip), vehicle: other) 3 of 6; under setting [4], 0 of 6.
Consider `Nc1nc(N)c2[nH]cnc2n1`, for which the survivor count (T/C endpoint: mean survival time, dose: 200.0 mg/kg/injection, schedule: Q01DX005 (ip), vehicle: Klucel (hydroxypropylcellulose) (HPC)) is 0 of 6.
Regarding `[N-]=[N+]=CC(=O)NCC(=O)NCCNCCO`, the T/C (T/C endpoint: mean survival time, dose: 200.0 mg/kg/injection, schedule: Q01DX009 (ip), vehicle: other) was 141 % of control.
Regarding `COc1cc2c(cc1O)N=C[C@@H]1CCC(O)N1C2=O` (mixture of isomers), the T/C was 126 % of control (T/C endpoint: mean survival time, dose: 4.0 mg/kg/injection, schedule: Q01DX009 (ip), vehicle: saline); 131 % of control (T/C endpoint: mean survival time, dose: 8.0 mg/kg/injection, schedule: Q01DX009 (ip), vehicle: saline); 127 % of control (T/C endpoint: median survival time, dose: 3.2 mg/kg/injection, schedule: Q01DX005 (ip), vehicle: saline). Moreover, the survivor count runs as follows: (T/C endpoint: mean survival time, dose: 16.0 mg/kg/injection, schedule: Q01DX009 (ip), vehicle: saline) 0 of 6 and 3 of 6; (T/C endpoint: mean survival time, dose: 32.0 mg/kg/injection, schedule: Q01DX009 (ip), vehicle: saline) 0 of 6; (T/C endpoint: median survival time, dose: 6.4 mg/kg/injection, schedule: Q01DX005 (ip), vehicle: saline) 3 of 6; (T/C endpoint: median survival time, dose: 9.6 mg/kg/injection, schedule: Q01DX005 (ip), vehicle: saline) 1 of 6.
As for `COC1/C=C\C=C(/C)C(=O)NC2=CC(=O)C=C(C2=O)C(OC)C(C)CC(OC)C(OC)C(C)/C=C(/C)C1OC(N)=O` (centres undefined), the survivor count by setting is: (T/C endpoint: mean survival time, dose: 3.0 mg/kg/injection, schedule: Q01DX009 (ip), vehicle: Klucel (hydroxypropylcellulose) (HPC)) 7 of 10; (T/C endpoint: mean survival time, dose: 6.0 mg/kg/injection, schedule: Q01DX009 (ip), vehicle: Klucel (hydroxypropylcellulose) (HPC)) 0 of 10, 0 of 6, 4 of 6; (T/C endpoint: mean survival time, dose: 12.0 mg/kg/injection, schedule: Q01DX009 (ip), vehicle: Klucel (hydroxypropylcellulose) (HPC)) 1 of 6; (T/C endpoint: mean survival time, dose: 24.0 mg/kg/injection, schedule: Q01DX009 (ip), vehicle: Klucel (hydroxypropylcellulose) (HPC)) 0 of 6.
Consider `CC(=O)Nc1cccc([N+](=O)[O-])c1`, for which the survivor count (T/C endpoint: mean survival time, dose: 400.0 mg/kg/injection, schedule: Q04DX003 (ip), vehicle: Klucel (hydroxypropylcellulose) (HPC)) is 6 of 6.
On to `O/N=C/c1ccccc1`, for which the survivor count reads like this: under setting [5], 3 of 6; under setting [4], 0 of 6.
With `CCN(CC)CCCC(C)N` (centres undefined), the survivor count runs as follows: (T/C endpoint: mean survival time, dose: 100.0 mg/kg/injection, schedule: Q04DX003 (ip), vehicle: saline) 1 of 6; under setting [1], 0 of 6.
Take `N#Cc1cccnc1Cl`: the survivor count (T/C endpoint: median survival time, dose: 400.0 mg/kg/injection, schedule: Q04DX002 (ip), vehicle: saline with Tween-80) is recorded as 1 of 3.
For `CCC(C)C(=O)O[C@H]1C(=O)O[C@@H]2C[C@H]3C(C)=CC(=O)[C@@H](O)[C@]3(C)[C@H]3[C@@H](O)[C@H](O)[C@@]4(C)OC[C@]32[C@@H]14` (some centres undefined), the survivor count reads like this: (T/C endpoint: mean survival time, dose: 8.0 mg/kg/injection, schedule: Q01DX009 (ip), vehicle: saline + alcohol) 2 of 6; (T/C endpoint: mean survival time, dose: 16.0 mg/kg/injection, schedule: Q01DX009 (ip), vehicle: saline + alcohol) 0 of 6.
Turning to `c1ccc(C2CC2NC2=NCCO2)cc1` (centres undefined), the survivor count reads like this: under setting [6], 4 of 6; under setting [7], 0 of 6; under setting [2], 0 of 6.
For the compound `COc1cc2c(c(OC)c1OC)CCNC2`, the survivor count is, setting by setting: (T/C endpoint: mean survival time, dose: 100.0 mg/kg/injection, schedule: Q01DX001 (ip), vehicle: saline) 0 of 6; (T/C endpoint: mean survival time, dose: 200.0 mg/kg/injection, schedule: Q01DX001 (ip), vehicle: saline) 0 of 6; (T/C endpoint: mean survival time, dose: 400.0 mg/kg/injection, schedule: Q01DX001 (ip), vehicle: saline) 0 of 6.
Turning to `CC(C)(C#N)N1CCCCC1`, the survivor count is, setting by setting: (T/C endpoint: mean survival time, dose: 10.0 mg/kg/injection, schedule: Q04DX003 (ip), vehicle: saline) 3 of 6; (T/C endpoint: mean survival time, dose: 20.0 mg/kg/injection, schedule: Q04DX003 (ip), vehicle: saline) 2 of 6; under setting [6], 0 of 6; under setting [7], 0 of 6; under setting [2], 0 of 6.
Regarding `CC(Cc1ccccc1)NC1=NCCO1` (centres undefined), under setting [2], the survivor count was 6 of 6.
With `COC(=O)c1ccc(N=NN(C)C)cc1`, the T/C (T/C endpoint: mean survival time, dose: 108.0 mg/kg/injection, schedule: Q01DX009 (ip), vehicle: Klucel (hydroxypropylcellulose) (HPC)) was 133 % of control.
For the compound `COC(=O)C(Br)CCC(Br)C(=O)OC` (centres undefined), the survivor count under setting [8] is reported as 3 of 6.
As to `Cn1c(=O)c2c(ncn2C)n(C)c1=O.[Cl][Pt]([Cl])[Cl]`, the survivor count (T/C endpoint: mean survival time, dose: 200.0 mg/kg/injection, schedule: Q04DX003 (ip), vehicle: water) was 3 of 6.
On to `CCCCCCCCCCCC(=O)Nc1ccc(C(C)C)cc1`, for which the survivor count under setting [2] was 4 of 6.
As to `ClCCn1c(CCl)nc2ccc(Cl)cc21`, the survivor count is, setting by setting: (T/C endpoint: mean survival time, dose: 20.0 mg/kg/injection, schedule: Q01DX009 (ip), vehicle: Klucel (hydroxypropylcellulose) (HPC)) 6 of 6; (T/C endpoint: mean survival time, dose: 40.0 mg/kg/injection, schedule: Q01DX009 (ip), vehicle: Klucel (hydroxypropylcellulose) (HPC)) 1 of 6.
Consider `O=C(C[n+]1cccc(C(=O)c2ccccc2)c1)c1ccccc1`, for which the survivor count by setting is: (T/C endpoint: mean survival time, dose: 150.0 mg/kg/injection, schedule: Q04DX003 (ip), vehicle: saline) 2 of 6; (T/C endpoint: mean survival time, dose: 300.0 mg/kg/injection, schedule: Q01DX001 (ip), vehicle: saline) 0 of 6.
For `CCCCCC(C)SC#N` (centres undefined), the survivor count is given as 0 of 6 under setting [3] and 0 of 6 under setting [8].
For the compound `Cc1ccccc1CS`, the survivor count under setting [8] was 0 of 6.
With `CCCCOC(=O)c1ccccc1C(=O)O.[Cu+2]`, the survivor count reads like this: (T/C endpoint: mean survival time, dose: 100.0 mg/kg/injection, schedule: Q01DX001 (ip), vehicle: saline with Tween-80) 0 of 3; under setting [5], 0 of 3; under setting [4], 0 of 3.
With `COc1cc(/C=C/c2nc3ccccc3nc2/C=C/c2cc(OC)c(OC)c(OC)c2)cc(OC)c1OC`, the survivor count by setting is: (T/C endpoint: mean survival time, dose: 100.0 mg/kg/injection, schedule: Q01DX009 (ip), vehicle: saline with Tween-80) 6 of 6; under setting [6], 6 of 6; under setting [7], 6 of 6.
Turning to `[Cl][Mn][Cl]`, where the note is “T/C endpoint: median survival time, dose: 128.0 mg/kg/injection, schedule: Q01DX009 (ip), vehicle: saline”, the survivor count is given as 0 of 6.
Regarding `C(=NC1CCCCC1)c1c[nH]c2ccccc12`, the survivor count under setting [8] is on record as 3 of 6.
On to `NC(N)=Nc1nc(N)nc(N)n1`, for which the survivor count is 3 of 3 (T/C endpoint: mean survival time, dose: 25.0 mg/kg/injection, schedule: Q01DX009 (ip), vehicle: saline with Tween-80) and 0 of 3 (T/C endpoint: mean survival time, dose: 50.0 mg/kg/injection, schedule: Q01DX009 (ip), vehicle: saline with Tween-80).
